Experimental data as given in the supplement of paper PMC10849652.
The other results are listed elsewhere or left out.

Chains of the proteins cited; added tags and fusions are not shown. Lines headed by an entry give the natural chain unless they say otherwise; changes in a name come on top.
UniProt Q17R31: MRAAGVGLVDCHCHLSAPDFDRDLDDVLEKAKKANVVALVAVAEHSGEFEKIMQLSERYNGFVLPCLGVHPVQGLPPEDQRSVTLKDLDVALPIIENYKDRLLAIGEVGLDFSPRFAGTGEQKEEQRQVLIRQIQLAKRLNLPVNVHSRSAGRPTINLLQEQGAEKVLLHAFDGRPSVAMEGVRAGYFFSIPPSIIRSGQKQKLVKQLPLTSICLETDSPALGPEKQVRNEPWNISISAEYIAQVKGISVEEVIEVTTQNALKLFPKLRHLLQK
UniProt Q9UI15: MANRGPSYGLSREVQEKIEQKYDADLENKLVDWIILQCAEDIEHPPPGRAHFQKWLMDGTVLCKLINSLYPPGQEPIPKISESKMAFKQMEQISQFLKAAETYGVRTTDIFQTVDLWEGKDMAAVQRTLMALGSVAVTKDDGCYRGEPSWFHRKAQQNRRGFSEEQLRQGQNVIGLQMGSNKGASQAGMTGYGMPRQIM
UniProt O95455: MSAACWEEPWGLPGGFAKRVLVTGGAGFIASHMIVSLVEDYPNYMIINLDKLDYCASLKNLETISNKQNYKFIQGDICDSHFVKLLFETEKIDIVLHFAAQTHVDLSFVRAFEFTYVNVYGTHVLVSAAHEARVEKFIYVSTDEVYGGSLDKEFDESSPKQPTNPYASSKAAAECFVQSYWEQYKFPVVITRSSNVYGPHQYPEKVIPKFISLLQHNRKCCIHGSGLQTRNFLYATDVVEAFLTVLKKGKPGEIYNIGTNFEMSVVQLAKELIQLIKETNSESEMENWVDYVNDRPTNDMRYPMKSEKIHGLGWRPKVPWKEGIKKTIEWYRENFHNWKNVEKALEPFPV
UniProt Q96QE5: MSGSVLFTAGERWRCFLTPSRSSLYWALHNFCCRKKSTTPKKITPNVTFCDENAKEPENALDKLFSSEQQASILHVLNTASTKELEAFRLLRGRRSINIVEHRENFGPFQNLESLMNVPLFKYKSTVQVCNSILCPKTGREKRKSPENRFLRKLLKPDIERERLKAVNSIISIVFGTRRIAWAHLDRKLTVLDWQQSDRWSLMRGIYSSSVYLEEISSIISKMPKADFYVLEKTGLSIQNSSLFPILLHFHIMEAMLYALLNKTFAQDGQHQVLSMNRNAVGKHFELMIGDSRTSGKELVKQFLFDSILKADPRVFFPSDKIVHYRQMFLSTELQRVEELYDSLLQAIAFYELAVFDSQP
UniProt Q13569: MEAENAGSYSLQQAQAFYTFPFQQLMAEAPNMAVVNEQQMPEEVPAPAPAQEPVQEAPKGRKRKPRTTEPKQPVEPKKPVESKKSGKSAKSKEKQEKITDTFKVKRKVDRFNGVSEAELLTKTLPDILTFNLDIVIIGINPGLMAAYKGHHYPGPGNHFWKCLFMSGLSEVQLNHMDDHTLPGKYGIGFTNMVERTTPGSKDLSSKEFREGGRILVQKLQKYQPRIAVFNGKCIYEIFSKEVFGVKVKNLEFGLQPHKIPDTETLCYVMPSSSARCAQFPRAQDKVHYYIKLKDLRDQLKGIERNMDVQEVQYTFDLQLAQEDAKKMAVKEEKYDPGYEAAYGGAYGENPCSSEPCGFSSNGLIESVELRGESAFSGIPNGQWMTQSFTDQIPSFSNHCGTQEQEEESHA
UniProt Q9BQ70: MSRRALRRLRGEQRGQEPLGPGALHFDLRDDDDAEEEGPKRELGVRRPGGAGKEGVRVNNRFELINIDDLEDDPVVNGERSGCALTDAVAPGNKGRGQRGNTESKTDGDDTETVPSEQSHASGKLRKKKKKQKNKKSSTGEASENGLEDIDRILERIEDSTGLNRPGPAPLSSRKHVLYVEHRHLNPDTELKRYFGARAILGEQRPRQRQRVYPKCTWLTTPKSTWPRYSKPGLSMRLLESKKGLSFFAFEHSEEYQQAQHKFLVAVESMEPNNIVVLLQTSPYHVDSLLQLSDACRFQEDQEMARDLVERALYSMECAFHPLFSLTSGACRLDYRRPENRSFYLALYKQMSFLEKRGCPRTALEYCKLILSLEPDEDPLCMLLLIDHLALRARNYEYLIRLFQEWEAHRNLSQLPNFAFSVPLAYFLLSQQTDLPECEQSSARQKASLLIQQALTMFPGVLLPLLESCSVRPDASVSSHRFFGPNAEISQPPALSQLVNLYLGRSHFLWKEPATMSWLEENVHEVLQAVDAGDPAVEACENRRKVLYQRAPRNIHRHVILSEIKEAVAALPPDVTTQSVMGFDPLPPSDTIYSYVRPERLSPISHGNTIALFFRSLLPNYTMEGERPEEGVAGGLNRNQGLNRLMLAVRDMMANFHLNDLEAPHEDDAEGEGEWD
UniProt Q01664: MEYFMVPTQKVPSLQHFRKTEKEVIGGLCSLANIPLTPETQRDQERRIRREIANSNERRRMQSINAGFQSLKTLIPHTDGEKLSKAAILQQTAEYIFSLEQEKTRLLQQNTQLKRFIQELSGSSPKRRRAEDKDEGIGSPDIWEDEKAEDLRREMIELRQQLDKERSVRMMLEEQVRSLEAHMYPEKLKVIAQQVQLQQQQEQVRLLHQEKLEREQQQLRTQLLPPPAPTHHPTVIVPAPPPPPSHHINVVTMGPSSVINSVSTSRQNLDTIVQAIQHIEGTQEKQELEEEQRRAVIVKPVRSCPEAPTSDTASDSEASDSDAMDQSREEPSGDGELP
UniProt Q6P1N9: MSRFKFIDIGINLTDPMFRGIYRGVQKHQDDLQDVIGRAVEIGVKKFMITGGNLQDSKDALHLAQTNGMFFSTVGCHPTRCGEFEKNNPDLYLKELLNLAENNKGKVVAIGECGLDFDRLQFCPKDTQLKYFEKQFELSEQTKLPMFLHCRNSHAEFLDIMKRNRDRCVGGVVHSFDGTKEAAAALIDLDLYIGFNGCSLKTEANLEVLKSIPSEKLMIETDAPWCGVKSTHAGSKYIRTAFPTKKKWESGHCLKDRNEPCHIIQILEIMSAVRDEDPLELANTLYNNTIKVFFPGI
UniProt P0C1Z6, whole entry, looked up: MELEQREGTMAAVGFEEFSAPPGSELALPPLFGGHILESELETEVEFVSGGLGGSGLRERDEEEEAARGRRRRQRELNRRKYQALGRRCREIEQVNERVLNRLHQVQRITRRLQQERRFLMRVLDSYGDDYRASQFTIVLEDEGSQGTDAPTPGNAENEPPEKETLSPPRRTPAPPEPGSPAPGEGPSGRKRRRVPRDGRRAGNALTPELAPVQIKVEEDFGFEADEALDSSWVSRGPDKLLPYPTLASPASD
UniProt P15884: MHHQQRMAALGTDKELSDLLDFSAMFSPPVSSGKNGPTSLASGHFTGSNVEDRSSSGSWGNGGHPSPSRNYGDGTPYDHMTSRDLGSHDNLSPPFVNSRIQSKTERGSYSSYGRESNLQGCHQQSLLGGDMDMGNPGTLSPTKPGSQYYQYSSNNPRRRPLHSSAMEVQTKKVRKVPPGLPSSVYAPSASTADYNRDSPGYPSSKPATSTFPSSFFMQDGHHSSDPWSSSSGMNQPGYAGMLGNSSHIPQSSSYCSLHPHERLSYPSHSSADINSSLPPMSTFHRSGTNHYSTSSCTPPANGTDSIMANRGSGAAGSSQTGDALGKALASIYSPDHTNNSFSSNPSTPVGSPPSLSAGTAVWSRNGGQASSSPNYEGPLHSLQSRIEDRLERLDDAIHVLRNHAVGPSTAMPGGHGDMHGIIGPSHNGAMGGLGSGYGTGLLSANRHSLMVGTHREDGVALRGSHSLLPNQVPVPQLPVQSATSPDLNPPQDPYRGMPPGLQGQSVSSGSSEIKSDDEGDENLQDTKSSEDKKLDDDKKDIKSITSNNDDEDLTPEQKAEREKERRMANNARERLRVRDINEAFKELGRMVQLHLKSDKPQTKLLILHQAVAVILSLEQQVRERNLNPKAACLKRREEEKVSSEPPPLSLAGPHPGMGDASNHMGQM

How the values were obtained:
Assay in all cases: log2 fold change, soluble protein after heating vs DMSO (PISA); higher = thermal stabilisation; K562 lysate, 10 uM; active = over 0.2 and 3.5 SD of the protein, either way, in both replicates (recomputed)
lapatinib = compound: CS(=O)(=O)CCNCc1ccc(-c2ccc3ncnc(Nc4ccc(OCc5cccc(F)c5)c(Cl)c4)c3c2)o1 [lapatinib]
Method in brief: (§1)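 K562 pellets were dounce-homogenised in PBS pH 7.4 containing 1 mM MgCl2, and the crude extract, at 1 mg/mL protein, was exposed to 10 μM compound for 30 min. Aliquots were heated for 3 min across 48°C-58°C, pooled, brought to 0.5% NP-40 at 4°C and spun at 21,000xg for 90 min, with the supernatant taken as soluble protein. TMTpro 16plex LC-MS/MS with equalised channel sums quantified that protein. Values are log-two fold changes in thermal stability relative to solvent controls, taken from duplicates.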

pictilisib = compound: CS(=O)(=O)N1CCN(Cc2cc3nc(-c4cccc5[nH]ncc45)nc(N4CCOCC4)c3s2)CC1 [pictilisib]
Method in brief: as §1

crizotinib = compound: C[C@@H](Oc1cc(-c2cnn(C3CCNCC3)c2)cnc1N)c1c(Cl)ccc(F)c1Cl [crizotinib]
Method in brief: as §1

[1] = compound: C[C@H](C1=CC=C(C=C1)C(=O)NC2=C3C=CNC3=NC=C2)N
Method in brief: as §1

duvelisib = compound: C[C@H](Nc1ncnc2nc[nH]c12)c1cc2cccc(Cl)c2c(=O)n1-c1ccccc1 [duvelisib]
Method in brief: as §1

gandotinib = compound: Cc1cc(Nc2cc(CN3CCOCC3)c3nc(C)c(Cc4ccc(Cl)cc4F)n3n2)n[nH]1 [gandotinib]
Method in brief: as §1

tozasertib = compound: Cc1cc(Nc2cc(N3CCN(C)CC3)nc(Sc3ccc(NC(=O)C4CC4)cc3)n2)n[nH]1 [tozasertib]
Method in brief: as §1

doramapimod = compound: Cc1ccc(-n2nc(C(C)(C)C)cc2NC(=O)Nc2ccc(OCCN3CCOCC3)c3ccccc23)cc1 [doramapimod]
Method in brief: as §1

bafetinib = compound: Cc1ccc(NC(=O)c2ccc(CN3CC[C@H](N(C)C)C3)c(C(F)(F)F)c2)cc1Nc1nccc(-c2cncnc2)n1 [bafetinib]
Method in brief: as §1

[2] = compound: Cc1cccc(CC(=O)N2CCc3c2ccc(-c2cn(C)c4ncnc(N)c24)c3F)n1
Method in brief: as §1

nilotinib = compound: Cc1cn(-c2cc(NC(=O)c3ccc(C)c(Nc4nccc(-c5cccnc5)n4)c3)cc(C(F)(F)F)c2)cn1 [nilotinib]
Method in brief: as §1

[3] = compound: Cc1nc(Nc2n[nH]c3c2CN(C(=O)N[C@H](CN(C)C)c2ccccc2)C3(C)C)c2sccc2n1
Method in brief: as §1

dasatinib = compound: Cc1nc(Nc2ncc(C(=O)Nc3c(C)cccc3Cl)s2)cc(N2CCN(CCO)CC2)n1 [dasatinib]
Method in brief: as §1

[4] = compound: Cc1ncc(-c2ccnc(Nc3ccc(S(C)(=O)=O)cc3)n2)n1C(C)C
Method in brief: as §1

[5] = compound: Cn1cc(-c2ccc3c(c2)CCN3C(=O)Cc2cccc(C(F)(F)F)c2)c2c(N)ncnc21
Method in brief: as §1

quisinostat = compound: Cn1cc(CNCC2CCN(c3ncc(C(=O)NO)cn3)CC2)c2ccccc21 [quisinostat]
Method in brief: as §1

tipifarnib = compound: Cn1cncc1[C@@](N)(c1ccc(Cl)cc1)c1ccc2c(c1)c(-c1cccc(Cl)c1)cc(=O)n2C [tipifarnib]
Method in brief: as §1

[6] = compound: NC(=O)Nc1cc(-c2cccc(F)c2)sc1C(=O)N[C@H]1CCCNC1
Method in brief: as §1

[7] = compound: NC(=O)c1cnc(N[C@@H]2CCCC[C@@H]2N)nc1Nc1cccc(-n2nccn2)c1
Method in brief: as §1

[8] = compound: NC1(c2ccc(-c3nc4ccn5c(=O)[nH]nc5c4cc3-c3ccccc3)cc2)CCC1
Method in brief: as §1

Measured: log2 fold change

TATDN3 isoform 3 (UniProt Q17R31)
inactive: lapatinib -0.044 | pictilisib -0.039 | crizotinib -0.034 | [1] -0.131 | duvelisib 0.079 | gandotinib 0.077 | tozasertib -0.006 | doramapimod 0.032 | bafetinib -0.063 | [2] 0.097 | nilotinib 0.002 | [3] -0.004 | dasatinib -0.065 | [4] 0.008 | [5] -0.026 | quisinostat -0.112 | tipifarnib 0.01 | [6] 0.011 | [7] -0.038 | [8] -0.01

TAGLN3 (UniProt Q9UI15)
inactive: lapatinib 0.103 | [1] -0.163 | gandotinib 0.265 | tozasertib 0.175 | [2] 0.287 | [7] 0.117 | [8] 0.124

TGDS (UniProt O95455)
inactive: lapatinib -0.055 | pictilisib 0.169 | crizotinib -0.063 | [1] -0.028 | gandotinib 0.021 | doramapimod 0.012 | bafetinib -0.056 | [2] 0.138 | nilotinib -0.083 | [3] -0.106 | [4] 0.113 | quisinostat -0.014 | tipifarnib 0.185 | [6] 0.161 | [7] -0.012

TEFM (UniProt Q96QE5)
inactive: lapatinib -0.04 | crizotinib -0.039 | [1] 0.084 | duvelisib -0.016 | gandotinib -0.062 | tozasertib 0.232 | doramapimod -0.011 | [2] -0.04 | nilotinib 0.025 | [3] -0.012 | dasatinib 0.067 | [4] 0.007 | [5] 0.01 | quisinostat -0.008 | tipifarnib -0.02 | [6] 0.027 | [7] 0.039 | [8] 0.049

TDG (UniProt Q13569)
inactive: pictilisib -0.109 | crizotinib 0.104 | [1] -0.025 | duvelisib -0.012 | gandotinib 0.015 | tozasertib 0.109 | doramapimod -0.033 | bafetinib -0.042 | [2] 0.065 | nilotinib -0.128 | [3] 0.006 | dasatinib -0.04 | [4] 0.037 | [5] 0.044 | quisinostat 0.127 | tipifarnib 0.012 | [6] -0.051

TCF25 (UniProt Q9BQ70)
inactive: pictilisib 0.015 | crizotinib -0.092 | [1] 0.109 | duvelisib -0.004 | gandotinib 0.006 | tozasertib 0.304 | doramapimod 0.033 | bafetinib 0.006 | [2] 0.215 | nilotinib -0.066 | [3] -0.122 | dasatinib -0.143 | [4] -0.096 | [5] -0.058 | quisinostat -0.052 | tipifarnib 0.009 | [6] 0.062 | [8] -0.093

Two successive entries from above, for reference:
TGDS (UniProt O95455)
inactive: lapatinib -0.055 | pictilisib 0.169 | crizotinib -0.063 | [1] -0.028 | gandotinib 0.021 | doramapimod 0.012 | bafetinib -0.056 | [2] 0.138 | nilotinib -0.083 | [3] -0.106 | [4] 0.113 | quisinostat -0.014 | tipifarnib 0.185 | [6] 0.161 | [7] -0.012

TEFM (UniProt Q96QE5)
inactive: lapatinib -0.04 | crizotinib -0.039 | [1] 0.084 | duvelisib -0.016 | gandotinib -0.062 | tozasertib 0.232 | doramapimod -0.011 | [2] -0.04 | nilotinib 0.025 | [3] -0.012 | dasatinib 0.067 | [4] 0.007 | [5] 0.01 | quisinostat -0.008 | tipifarnib -0.02 | [6] 0.027 | [7] 0.039 | [8] 0.049

(further entries)

TFAP4 (UniProt Q01664)
active: [1] 0.477
inactive: lapatinib -0.05 | pictilisib 0.022 | crizotinib 0.009 | gandotinib 0.033 | tozasertib -0.05 | doramapimod 0.017 | bafetinib -0.214 | [2] -0.217 | nilotinib 0.18 | [3] 0.155 | [4] 0 | quisinostat 0.006 | tipifarnib -0.066 | [6] -0.036 | [7] -0.218 | [8] -0.001

TATDN1 isoform 2 (UniProt Q6P1N9)
inactive: lapatinib 0.029 | pictilisib -0.057 | crizotinib -0.069 | doramapimod -0.029 | bafetinib -0.123 | quisinostat -0.122 | [6] 0.018 | [7] 0.266 | [8] -0.064

TFPT (UniProt P0C1Z6)
inactive: lapatinib -0.004 | pictilisib 0.032 | duvelisib -0.005 | bafetinib -0.004 | dasatinib 0.009 | [5] 0.006 | [7] 0.023 | [8] -0.002

TCF4 (UniProt P15884)
inactive: lapatinib -0.212 | crizotinib 0.128 | [1] 0.039 | duvelisib 0.039 | gandotinib -0.022 | tozasertib -0.044 | doramapimod -0.099 | [2] 0 | nilotinib -0.004 | [3] -0.139 | dasatinib 0.077 | [4] -0.057 | [5] 0.01 | quisinostat 0.161 | tipifarnib -0.147 | [6] 0.064 | [7] 0.016
